Test results reported in the supplement of paper PMC10849652.
The list shows a part of the results.

The chains behind the UniProt entries cited, without tags or fusion partners. Where a name states a change or a piece, a line headed by the entry shows the natural chain unless it says otherwise.
UniProt Q92556, whole entry, looked up: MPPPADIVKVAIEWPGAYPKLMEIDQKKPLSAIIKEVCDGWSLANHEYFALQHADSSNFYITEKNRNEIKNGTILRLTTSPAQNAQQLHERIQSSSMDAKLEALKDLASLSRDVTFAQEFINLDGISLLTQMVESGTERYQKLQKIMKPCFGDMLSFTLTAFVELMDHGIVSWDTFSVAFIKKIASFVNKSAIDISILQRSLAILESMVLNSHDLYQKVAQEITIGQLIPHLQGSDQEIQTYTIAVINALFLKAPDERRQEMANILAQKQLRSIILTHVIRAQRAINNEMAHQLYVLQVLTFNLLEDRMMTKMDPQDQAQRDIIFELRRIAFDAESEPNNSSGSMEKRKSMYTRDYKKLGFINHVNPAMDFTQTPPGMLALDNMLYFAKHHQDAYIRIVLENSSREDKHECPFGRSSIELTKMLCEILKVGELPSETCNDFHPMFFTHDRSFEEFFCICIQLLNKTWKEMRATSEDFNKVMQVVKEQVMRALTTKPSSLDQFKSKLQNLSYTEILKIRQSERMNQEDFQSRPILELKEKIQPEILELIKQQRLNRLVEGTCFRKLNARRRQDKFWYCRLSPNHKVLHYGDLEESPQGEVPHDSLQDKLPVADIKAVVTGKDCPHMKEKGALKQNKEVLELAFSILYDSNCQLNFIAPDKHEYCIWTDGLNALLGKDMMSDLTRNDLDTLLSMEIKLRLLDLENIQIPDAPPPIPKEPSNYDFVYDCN
UniProt Q9NPA0: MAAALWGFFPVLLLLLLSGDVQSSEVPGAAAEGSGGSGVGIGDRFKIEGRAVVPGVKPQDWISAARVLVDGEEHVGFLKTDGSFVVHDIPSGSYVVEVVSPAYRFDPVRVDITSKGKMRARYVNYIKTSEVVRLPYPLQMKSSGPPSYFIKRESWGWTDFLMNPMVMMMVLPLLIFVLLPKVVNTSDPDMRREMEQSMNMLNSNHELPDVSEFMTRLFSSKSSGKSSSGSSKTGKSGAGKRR
UniProt Q9BV81: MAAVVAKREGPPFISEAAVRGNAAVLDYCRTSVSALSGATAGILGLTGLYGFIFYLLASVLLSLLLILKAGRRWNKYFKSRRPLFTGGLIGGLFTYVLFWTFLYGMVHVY
UniProt P41214: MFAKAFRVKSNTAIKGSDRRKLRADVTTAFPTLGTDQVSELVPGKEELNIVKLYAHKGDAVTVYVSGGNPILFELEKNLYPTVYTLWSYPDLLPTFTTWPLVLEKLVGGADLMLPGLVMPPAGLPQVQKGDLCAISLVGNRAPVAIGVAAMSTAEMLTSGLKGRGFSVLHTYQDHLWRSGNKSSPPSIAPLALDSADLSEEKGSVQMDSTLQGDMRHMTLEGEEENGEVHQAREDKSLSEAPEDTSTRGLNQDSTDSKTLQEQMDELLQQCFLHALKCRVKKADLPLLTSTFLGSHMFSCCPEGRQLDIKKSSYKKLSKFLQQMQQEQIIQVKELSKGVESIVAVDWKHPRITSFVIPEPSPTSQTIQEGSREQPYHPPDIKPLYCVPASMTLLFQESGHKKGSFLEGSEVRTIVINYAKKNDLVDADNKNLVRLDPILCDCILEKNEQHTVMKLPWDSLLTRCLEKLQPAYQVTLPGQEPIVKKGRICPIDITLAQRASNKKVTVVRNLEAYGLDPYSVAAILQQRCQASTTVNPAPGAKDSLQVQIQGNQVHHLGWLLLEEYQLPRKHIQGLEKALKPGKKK
UniProt P84090, whole entry, looked up: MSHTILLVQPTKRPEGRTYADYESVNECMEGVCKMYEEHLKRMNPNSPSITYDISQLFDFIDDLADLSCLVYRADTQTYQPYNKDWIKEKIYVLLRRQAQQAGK
UniProt Q9UBC2: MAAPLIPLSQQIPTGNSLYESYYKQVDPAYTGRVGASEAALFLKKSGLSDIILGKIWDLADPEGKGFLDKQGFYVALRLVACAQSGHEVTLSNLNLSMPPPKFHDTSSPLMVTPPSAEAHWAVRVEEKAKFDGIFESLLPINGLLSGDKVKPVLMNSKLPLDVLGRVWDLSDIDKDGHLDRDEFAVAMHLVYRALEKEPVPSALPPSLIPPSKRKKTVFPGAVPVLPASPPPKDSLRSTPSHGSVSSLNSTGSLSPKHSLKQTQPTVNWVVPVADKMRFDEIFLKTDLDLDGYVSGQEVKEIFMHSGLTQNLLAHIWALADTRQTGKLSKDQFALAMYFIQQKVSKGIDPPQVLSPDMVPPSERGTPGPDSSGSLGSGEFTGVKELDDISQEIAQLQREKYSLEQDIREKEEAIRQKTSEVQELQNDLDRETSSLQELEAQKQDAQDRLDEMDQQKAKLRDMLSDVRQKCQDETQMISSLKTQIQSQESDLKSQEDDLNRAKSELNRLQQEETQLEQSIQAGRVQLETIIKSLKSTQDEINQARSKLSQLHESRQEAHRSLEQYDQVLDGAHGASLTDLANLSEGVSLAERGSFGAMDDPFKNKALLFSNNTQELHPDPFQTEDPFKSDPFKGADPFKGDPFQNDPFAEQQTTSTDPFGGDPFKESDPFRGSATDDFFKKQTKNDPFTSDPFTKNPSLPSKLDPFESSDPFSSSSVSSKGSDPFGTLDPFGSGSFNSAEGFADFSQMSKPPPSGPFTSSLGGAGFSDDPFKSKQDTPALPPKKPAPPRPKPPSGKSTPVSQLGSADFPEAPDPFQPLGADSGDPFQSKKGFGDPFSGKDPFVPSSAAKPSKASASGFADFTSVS
UniProt Q92889: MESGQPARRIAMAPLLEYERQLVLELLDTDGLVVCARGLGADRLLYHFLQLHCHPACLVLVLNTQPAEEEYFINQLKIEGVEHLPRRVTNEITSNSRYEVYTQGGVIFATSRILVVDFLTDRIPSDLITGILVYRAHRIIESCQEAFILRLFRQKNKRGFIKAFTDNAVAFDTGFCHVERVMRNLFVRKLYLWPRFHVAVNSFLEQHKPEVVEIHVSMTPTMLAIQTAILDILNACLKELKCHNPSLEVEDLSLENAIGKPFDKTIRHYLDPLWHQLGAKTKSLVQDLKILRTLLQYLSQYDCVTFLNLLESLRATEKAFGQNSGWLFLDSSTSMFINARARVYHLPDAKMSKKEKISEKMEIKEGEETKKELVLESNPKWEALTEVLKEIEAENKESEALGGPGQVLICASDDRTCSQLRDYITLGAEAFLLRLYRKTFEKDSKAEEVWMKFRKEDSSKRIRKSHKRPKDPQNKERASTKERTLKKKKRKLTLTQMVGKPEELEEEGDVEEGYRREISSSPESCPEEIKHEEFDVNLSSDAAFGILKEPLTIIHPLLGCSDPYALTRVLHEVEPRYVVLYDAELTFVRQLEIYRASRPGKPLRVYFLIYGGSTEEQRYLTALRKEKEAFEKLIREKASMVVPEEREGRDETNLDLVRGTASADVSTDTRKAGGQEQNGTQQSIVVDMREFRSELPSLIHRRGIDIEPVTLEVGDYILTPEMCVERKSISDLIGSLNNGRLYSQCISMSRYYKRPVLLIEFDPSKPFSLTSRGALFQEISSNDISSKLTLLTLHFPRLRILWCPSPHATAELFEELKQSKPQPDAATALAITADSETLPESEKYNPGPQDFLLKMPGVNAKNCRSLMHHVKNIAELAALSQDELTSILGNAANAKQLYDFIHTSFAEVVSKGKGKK
UniProt P19447: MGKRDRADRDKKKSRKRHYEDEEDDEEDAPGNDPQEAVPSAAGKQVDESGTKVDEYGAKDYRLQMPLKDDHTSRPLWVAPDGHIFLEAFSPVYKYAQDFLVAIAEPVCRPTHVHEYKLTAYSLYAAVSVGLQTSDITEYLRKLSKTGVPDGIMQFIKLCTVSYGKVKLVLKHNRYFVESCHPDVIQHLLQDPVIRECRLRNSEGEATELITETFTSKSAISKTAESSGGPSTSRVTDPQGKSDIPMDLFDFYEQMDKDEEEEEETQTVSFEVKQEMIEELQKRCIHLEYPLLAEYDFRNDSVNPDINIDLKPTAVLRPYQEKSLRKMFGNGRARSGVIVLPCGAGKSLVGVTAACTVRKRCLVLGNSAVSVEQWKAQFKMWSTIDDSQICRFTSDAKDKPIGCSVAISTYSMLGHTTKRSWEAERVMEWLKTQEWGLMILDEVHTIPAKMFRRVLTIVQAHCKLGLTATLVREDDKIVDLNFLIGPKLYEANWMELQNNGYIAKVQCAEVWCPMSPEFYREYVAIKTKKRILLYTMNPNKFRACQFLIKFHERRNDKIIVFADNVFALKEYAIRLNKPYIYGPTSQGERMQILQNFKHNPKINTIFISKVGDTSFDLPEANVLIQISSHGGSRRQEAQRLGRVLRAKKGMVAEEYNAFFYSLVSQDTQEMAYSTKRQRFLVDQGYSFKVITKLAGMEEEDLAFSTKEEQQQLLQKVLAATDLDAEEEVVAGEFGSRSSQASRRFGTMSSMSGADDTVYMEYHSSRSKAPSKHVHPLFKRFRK
UniProt O43768: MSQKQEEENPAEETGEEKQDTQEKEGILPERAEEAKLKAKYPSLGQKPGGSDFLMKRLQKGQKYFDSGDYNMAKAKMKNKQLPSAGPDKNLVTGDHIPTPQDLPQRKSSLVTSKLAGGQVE
UniProt P06730, whole entry, looked up: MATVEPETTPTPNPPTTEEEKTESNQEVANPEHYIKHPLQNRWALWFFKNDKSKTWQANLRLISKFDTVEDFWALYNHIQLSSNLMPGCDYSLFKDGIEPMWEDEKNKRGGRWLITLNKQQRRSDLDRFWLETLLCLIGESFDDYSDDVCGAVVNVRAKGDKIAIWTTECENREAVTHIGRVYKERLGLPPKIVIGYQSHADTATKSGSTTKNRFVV
UniProt Q5J8M3, whole entry, looked up: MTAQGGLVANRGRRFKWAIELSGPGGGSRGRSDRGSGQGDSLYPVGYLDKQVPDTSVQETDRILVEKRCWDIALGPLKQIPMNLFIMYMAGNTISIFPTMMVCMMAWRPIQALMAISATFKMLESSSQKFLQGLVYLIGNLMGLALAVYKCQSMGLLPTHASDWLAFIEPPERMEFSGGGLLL
UniProt Q6IA86: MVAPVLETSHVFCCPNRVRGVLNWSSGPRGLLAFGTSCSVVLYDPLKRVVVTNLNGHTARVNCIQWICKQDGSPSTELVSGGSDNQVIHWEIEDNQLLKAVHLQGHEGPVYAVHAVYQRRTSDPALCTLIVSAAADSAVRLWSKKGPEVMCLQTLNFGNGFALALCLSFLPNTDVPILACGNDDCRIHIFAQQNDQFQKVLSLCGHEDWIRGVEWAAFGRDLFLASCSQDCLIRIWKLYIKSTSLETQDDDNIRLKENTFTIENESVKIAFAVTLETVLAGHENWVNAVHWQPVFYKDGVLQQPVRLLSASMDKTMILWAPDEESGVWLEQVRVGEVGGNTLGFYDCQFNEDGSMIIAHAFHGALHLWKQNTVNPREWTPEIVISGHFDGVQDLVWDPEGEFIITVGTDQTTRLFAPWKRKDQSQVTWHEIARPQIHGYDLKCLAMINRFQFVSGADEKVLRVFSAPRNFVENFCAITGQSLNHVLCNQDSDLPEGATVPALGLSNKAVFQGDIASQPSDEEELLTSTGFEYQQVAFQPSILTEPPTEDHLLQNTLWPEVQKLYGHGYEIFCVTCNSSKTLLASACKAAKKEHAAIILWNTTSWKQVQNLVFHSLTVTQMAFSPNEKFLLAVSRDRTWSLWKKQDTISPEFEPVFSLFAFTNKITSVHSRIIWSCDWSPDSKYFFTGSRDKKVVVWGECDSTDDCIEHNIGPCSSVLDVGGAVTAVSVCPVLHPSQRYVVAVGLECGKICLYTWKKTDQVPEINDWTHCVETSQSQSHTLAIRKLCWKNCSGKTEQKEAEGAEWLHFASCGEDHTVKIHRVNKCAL
UniProt Q9Y6I3: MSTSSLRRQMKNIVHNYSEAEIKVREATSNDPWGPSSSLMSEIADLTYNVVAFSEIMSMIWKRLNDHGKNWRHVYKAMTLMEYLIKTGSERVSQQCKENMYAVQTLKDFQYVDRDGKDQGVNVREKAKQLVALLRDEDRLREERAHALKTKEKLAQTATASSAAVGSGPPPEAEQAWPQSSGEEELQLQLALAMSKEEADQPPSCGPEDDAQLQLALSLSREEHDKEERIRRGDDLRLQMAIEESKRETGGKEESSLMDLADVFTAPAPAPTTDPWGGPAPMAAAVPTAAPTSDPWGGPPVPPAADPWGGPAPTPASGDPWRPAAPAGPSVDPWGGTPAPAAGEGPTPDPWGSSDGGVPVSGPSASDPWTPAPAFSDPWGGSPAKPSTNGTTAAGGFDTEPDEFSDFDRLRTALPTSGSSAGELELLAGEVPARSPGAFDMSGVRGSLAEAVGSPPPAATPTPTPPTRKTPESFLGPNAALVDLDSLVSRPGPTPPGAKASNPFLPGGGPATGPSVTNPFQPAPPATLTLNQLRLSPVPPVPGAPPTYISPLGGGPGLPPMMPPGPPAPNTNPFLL
UniProt P50402: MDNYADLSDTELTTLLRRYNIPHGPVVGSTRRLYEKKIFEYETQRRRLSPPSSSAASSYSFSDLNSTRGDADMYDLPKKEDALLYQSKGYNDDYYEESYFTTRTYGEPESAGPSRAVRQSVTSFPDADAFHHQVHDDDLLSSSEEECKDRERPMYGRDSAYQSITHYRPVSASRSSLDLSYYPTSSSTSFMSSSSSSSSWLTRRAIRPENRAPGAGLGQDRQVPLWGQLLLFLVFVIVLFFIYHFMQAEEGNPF

The targets below were run with CC[C@@H]1C(=O)N(C)c2cnc(Nc3ccc(C(=O)NC4CCN(C)CC4)cc3OC)nc2N1C1CCCC1 (assay: log2 fold change, soluble protein after heating vs DMSO (PISA); higher = thermal stabilisation; K562 lysate, 10 uM; active = over 0.2 and 3.5 SD of the protein, either way, in both replicates (recomputed)).
How it was run: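 K562 pellets were dounce-homogenised in PBS pH 7.4 with 1 mM MgCl2, and the crude extract at 1 mg/mL protein was treated with 10 μM compound for 30 min. Aliquots were heated for 3 min across 48°C-58°C, pooled, and brought to 0.5% NP-40 at 4°C; soluble protein was the supernatant after 21,000xg for 90 min. Soluble protein was quantified by TMTpro 16plex LC-MS/MS with channel sums equalised, and reported as log2 fold change in thermal stability against DMSO controls, with values from duplicates.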

log2 fold change, inactive:
EIF3G (UniProt K7ER90) 0
EP300 (UniProt Q09472) -0.006
ERGIC2 (UniProt Q96RQ1) -0.048
ERAL1 (UniProt O75616) 0.065
EIF3F (UniProt O00303) -0.061
EMC3 (UniProt Q9P0I2) 0.047
ELMO1 (UniProt Q92556) -0.038
ERC1 (UniProt X6RLX0) 0.037
EIF3B isoform 2 (UniProt P55884) -0.043
ERI1 (UniProt Q8IV48) -0.018
ENY2 (UniProt Q9NPA8) -0.036
EMC7 (UniProt Q9NPA0) 0.034
EMC6 (UniProt Q9BV81) 0.172
EIF2D (UniProt P41214) -0.074
EIF2S3 (UniProt P41091) 0.007
ELF2 (UniProt Q15723) 0.005
ERH (UniProt P84090) -0.028
EPHX2 (UniProt P34913) 0.016
EPS15L1 isoform 2 (UniProt Q9UBC2) 0.017
ERCC4 (UniProt Q92889) 0.144
ERCC3 (UniProt P19447) -0.008
EPPK1 (UniProt P58107) -0.064
EIF6 (UniProt P56537) 0.019
ENSA isoform 3 (UniProt O43768) 0.049
EMP3 (UniProt P54852) 0.066
EIF4E isoform 2 (UniProt P06730) -0.122
ENTPD5 (UniProt O75356) -0.076
EPRS (UniProt P07814) -0.077
EIF2B4 isoform 2 (UniProt Q9UI10) -0.038
EMC4 (UniProt Q5J8M3) -0.045
ELP2 isoform 6 (UniProt Q6IA86) -0.007
ENGASE (UniProt Q8NFI3) 0
ENPP3 (UniProt O14638) 0.035
ENDOG (UniProt Q14249) -0.036
EPN1 (UniProt Q9Y6I3) 0.022
EMD (UniProt P50402) -0.016

2 records drawn at random from the list so far, as already listed:
log2 fold change, inactive:
ENSA isoform 3 (UniProt O43768) 0.049
EMC4 (UniProt Q5J8M3) -0.045
